Measured values: article PMC12075709
Results are given in words; binding and its absence hold for the method and conditions named.

Amino acid sequences for entries named in this document (tags omitted). A change or cut given only in a name is not applied to a line headed by its entry. Residues count along the entry.
UniProt P37173, residues 23-166: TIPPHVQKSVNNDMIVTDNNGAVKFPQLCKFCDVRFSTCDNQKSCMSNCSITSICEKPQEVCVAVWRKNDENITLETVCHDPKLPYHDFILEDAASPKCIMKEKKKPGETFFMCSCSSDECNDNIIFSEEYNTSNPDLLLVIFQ

Target: chimeric recombinant human TGFBR2-Fc (human) (UniProt P37173)
Assay: SPR; Biacore T200; receptor-Fc captured on a Protein A sensor chip (~70 RU); rhGDF3 flowed over, two-fold dilutions 12.5 nM-0.391 nM; 20 mM HEPES pH 7.4, 350 mM NaCl, 3.4 mM EDTA, 0.05% P-20, 0.5 mg/ml BSA, 25 °C; 1:1 fit model with mass transport limitations; both purified

B1: recombinant human GDF3 (Growth Differentiation Factor 3) (ligand, UniProt Q9NR23 251-364)
chain: AAIPVPKLSCKNLCHRHQLFINFRDLGWHKWIIAPKGFMANYCHGECPFSLTISLNSSNYAFMQALMHAVDPEIPQAVCIPTKLSPISMLYQDNNDNVILRHYEDMVVDECGCG
For B1, which binding is on record?
Its binding is “no binding (tested: 12.5 nM)”.
